Test results published in paper doi:10.1101/2025.11.25.690588.
Tags and fusion partners may be left off the protein sequences shown.

System: T1, GylR (Mycobacterium smegmatis)
T1 sequence (looked up): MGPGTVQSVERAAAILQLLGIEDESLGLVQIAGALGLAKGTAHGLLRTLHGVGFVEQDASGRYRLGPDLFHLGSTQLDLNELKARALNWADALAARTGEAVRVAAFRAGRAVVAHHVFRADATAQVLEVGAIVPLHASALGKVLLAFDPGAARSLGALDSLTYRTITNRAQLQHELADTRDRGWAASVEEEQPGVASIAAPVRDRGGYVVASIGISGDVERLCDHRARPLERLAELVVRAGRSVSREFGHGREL
Test: EMSA
Conditions: no G3P; residues 1-254; probe letters rebuilt from the primers and the genome

“CACCCCGAACAGGATGAGGATGCCGGCGAACTCGGCGCAGAGTTCTCCGACGAGTGTTCGTCGTGACATGTTGGTCTCCTTGGCTCTTCGAACCGCATGTGTTGTGCGTCATACGAGGCGTGCGTTGTGAACCTAGAAGCCAGAGGTCGGCCGGGCATCACCCGTCGTTCGGCATCGCCGAACACGGCCCCGGTCGACAATGCCGACCCTCGGGGTCGACATGGTCGAACGATTTGGTGATCCTGAAACTTGTGCCAGGCACTGTGCAGTCCGTGGAACGGGCCGCGGCGATACTGCAGCTAC (double strand) [PglpFKD (glpFKD promoter)]”: binds.
